This is an account of results in article PMC8251345, “Entropic pressure controls the oligomerization of the Vibrio cholerae ParD2 antitoxin” (Acta Crystallographica. Section D, Structural Biology, 2021).

These are yes or no findings as the source states them, for the method shown. Some entries that bind do so weakly or less than the wild type.

For the test, the target named is Vibrio cholerae ParE2 toxin with C-terminal His tag (V. cholerae). In words: SEC; […]; 20 mM Tris pH 8.0, 150 mM NaCl, 1 mM TCEP ([…]. Background: SEC sorts molecules by how far they enter the pores of the column.

B1: Vibrio cholerae ParD2 antitoxin (natural protein)
chain: MAKNTSITLGEHFDGFITSQIQSGRYGSASEVIRSALRLLENQETKLQSLRQLLIEGEQSGDADYDLDSFINELDSENIR
notes: also called VcParD2
Regarding B1, the binding result is reported as “binds”.
